{"source": "PubChem BioAssay AID2685", "about": "(National Center for Advancing Translational Sciences (NCATS), 2010)", "test": "qHTS Assay for Lipid Storage Modulators in Drosophila S3 Cells;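 for cell number change: cells counted by Cell Tracker Red CMTPX staining in the red channel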", "settings": "BODIPY lipid droplet fluorescence, 18-24 h; for cell number change: measured here: cell count max response, cells fed with added oleic acid", "summary_of_the_method": "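Laser-scanning cytometry quantifies lipid droplet accumulation (500–530 nm total intensity; droplet/cell object ratio) in oleic acid-fed (400 uM added) Drosophila S3 cells treated with a concentration series. 20 uM Triacsin C defined 100% inhibition.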", "key": {"[1]": {"settings": "measured here: lipid fluorescence (Fed channel) AC50, cells fed with added oleic acid"}, "[2]": {"settings": "measured here: cell number channel AC50, cells fed with added oleic acid"}}, "note": "The other results are listed elsewhere or left out. Further columns of the screen follow, without active or inactive calls. Compounds called inactive in the main read-out are mostly missing here. Words in brackets tell the shape of the fitted curve; partial curves, single points and poor fits give uncertain potencies.", "data": [{"smiles": "COc1cc(C(=O)Nn2c(C)nc3ccccc3c2=O)cc(OC)c1OC", "values": [{"measurement": "cell number change", "value": 20.7, "unit": "%"}]}, {"smiles": "N#Cc1ccc(N2CCN(C(=O)c3cccc(F)c3)CC2)c(F)c1", "values": [{"measurement": "cell number change", "value": 16.1, "unit": "%"}, {"measurement": "AC50", "setting": "[1]", "value": "23.1 µM [rising, single point]"}]}, {"smiles": "C/C(=N\\NC(=O)CNc1ccc(F)cc1)c1cc2ccccc2o1", "values": [{"measurement": "cell number change", "value": -2.32, "unit": "%"}, {"measurement": "AC50", "setting": "[1]", "value": "1.3 µM [rising, full curve]"}]}, {"smiles": "O=c1[nH]c(C2CCCN(S(=O)(=O)c3ccccc3)C2)nc2c1nnn2Cc1cccc(Cl)c1", "note": "(stereo unspecified)", "values": [{"measurement": "AC50", "setting": "[1]", "value": "3.26 µM [falling, full curve]"}]}, {"smiles": "Cc1nc2sc(C(N)=O)c(N)c2c2c1CCCC2", "values": [{"measurement": "cell number change", "value": 17.1, "unit": "%"}, {"measurement": "AC50", "setting": "[1]", "value": "1.3 µM [rising, full curve]"}]}, {"smiles": "CCOc1ccc(S(=O)(=O)N2CCCCC2)cc1NC(=O)C1=COCCO1", "values": [{"measurement": "cell number change", "value": -54.5, "unit": "%"}, {"measurement": "AC50", "setting": "[2]", "value": "7.31 µM [falling, single point]"}, {"measurement": "AC50", "setting": "[1]", "value": "20.6 µM [rising, single point]"}]}, {"smiles": "COCCn1c(C)cc(C(=O)COC(=O)c2[nH]c(C)c(C(C)=O)c2C)c1C", "values": [{"measurement": "cell number change", "value": 11, "unit": "%"}]}, {"smiles": "CCCc1nc2ccccc2c(=O)n1NC(=O)c1c(O)c2ccccc2n(C)c1=O", "values": [{"measurement": "cell number change", "value": 3.19, "unit": "%"}]}, {"smiles": "O=C(OCC(=O)c1ccc(S(=O)(=O)N2CCCC2)cc1)C1=COCCO1", "values": [{"measurement": "cell number change", "value": 17.4, "unit": "%"}, {"measurement": "AC50", "setting": "[1]", "value": "4.61 µM [falling, full curve, poor fit]"}]}, {"smiles": "C(=C\\c1ccccn1)/c1cccnc1", "values": [{"measurement": "cell number change", "value": 12.9, "unit": "%"}, {"measurement": "AC50", "setting": "[1]", "value": "2.31 µM [falling, partial curve]"}]}, {"smiles": "CCCCNC(=O)N(c1c(N)n(Cc2ccccc2)c(=O)[nH]c1=O)C1CCCC1", "values": [{"measurement": "cell number change", "value": -76.8, "unit": "%"}, {"measurement": "AC50", "setting": "[2]", "value": "1.46 µM [falling, partial curve]"}]}, {"smiles": "NCc1cccc(CNc2ccc([N+](=O)[O-])cc2C(N)=O)c1", "values": [{"measurement": "cell number change", "value": 18.9, "unit": "%"}, {"measurement": "AC50", "setting": "[1]", "value": "29.1 µM [falling, single point]"}]}, {"smiles": "CC(=O)Nc1ccccc1C(=O)N1CCN(Cc2ccccc2)CC1", "values": [{"measurement": "cell number change", "value": 40.6, "unit": "%"}, {"measurement": "AC50", "setting": "[2]", "value": "29.1 µM [rising, single point]"}, {"measurement": "AC50", "setting": "[1]", "value": "29.1 µM [rising, single point]"}]}, {"smiles": "Oc1ccc(Cl)cc1C1=Nc2ccccc2N=C(c2ccco2)C1", "values": [{"measurement": "cell number change", "value": -21.6, "unit": "%"}, {"measurement": "AC50", "setting": "[2]", "value": "2.06 µM [falling, partial curve, poor fit]"}, {"measurement": "AC50", "setting": "[1]", "value": "3.66 µM [falling, single point]"}]}, {"smiles": "Cc1c(/C=N\\NC(=O)c2c[nH]c3ccccc23)cnn1C", "values": [{"measurement": "cell number change", "value": 27.3, "unit": "%"}, {"measurement": "AC50", "setting": "[2]", "value": "0.092 µM [rising, full curve, poor fit]"}]}, {"smiles": "COc1cc(CN2CCN(c3cccc(C)c3C)CC2)cc(Br)c1O", "values": [{"measurement": "cell number change", "value": -21.7, "unit": "%"}]}, {"smiles": "CC1(C(=O)OCC(=O)Nc2ccccc2Cl)CC1(Cl)Cl", "note": "(stereo unspecified)", "values": [{"measurement": "AC50", "setting": "[2]", "value": "0.164 µM [rising, single point]"}]}, {"smiles": "CCC(=O)Nc1cc(C(=O)OCC(=O)c2ccccc2)ccc1C", "values": [{"measurement": "cell number change", "value": 15.4, "unit": "%"}, {"measurement": "AC50", "setting": "[1]", "value": "3.26 µM [rising, partial curve]"}]}, {"smiles": "CCN(CCCNC(=O)Cn1ncc2c([nH]c3ccc(C)cc32)c1=O)c1cccc(C)c1", "values": [{"measurement": "cell number change", "value": -7.41, "unit": "%"}, {"measurement": "AC50", "setting": "[1]", "value": "6.51 µM [falling, single point]"}]}, {"smiles": "CC1CCCCN1C(=O)CSCC(=O)Nc1nc(-c2cccs2)cs1", "note": "(stereo unspecified)", "values": [{"measurement": "cell number change", "value": -22, "unit": "%"}, {"measurement": "AC50", "setting": "[1]", "value": "18.4 µM [falling, single point]"}]}, {"smiles": "COC(=O)C1C(c2ccccc2)NC(=O)NC1(O)C(F)(F)Cl", "note": "(stereo unspecified)", "values": [{"measurement": "cell number change", "value": 0.146, "unit": "%"}]}, {"smiles": "CSc1cccc(CN2CCCC(CO)(Cc3cccc(Cl)c3)C2)c1", "note": "(stereo unspecified)", "values": [{"measurement": "cell number change", "value": -40.3, "unit": "%"}, {"measurement": "AC50", "setting": "[2]", "value": "16.4 µM [falling, single point]"}, {"measurement": "AC50", "setting": "[1]", "value": "18.4 µM [falling, single point]"}]}, {"smiles": "COc1ccc(S(=O)(=O)N(CC(=O)N2CCN(C)CC2)c2ccc(C)cc2)cc1OC", "values": [{"measurement": "cell number change", "value": -1.52, "unit": "%"}, {"measurement": "AC50", "setting": "[1]", "value": "2.91 µM [rising, partial curve]"}]}, {"smiles": "O=C(COC(=O)c1cncc(Br)c1)NCc1ccc2c(c1)OCO2", "values": [{"measurement": "cell number change", "value": 37.4, "unit": "%"}, {"measurement": "AC50", "setting": "[2]", "value": "6.51 µM [falling, single point]"}]}, {"smiles": "Cc1ccc2oc(C(=O)NCCC3CCCCO3)c(C)c2c1", "note": "(stereo unspecified)", "values": [{"measurement": "cell number change", "value": 6.94, "unit": "%"}, {"measurement": "AC50", "setting": "[1]", "value": "0.58 µM [rising, single point]"}]}, {"smiles": "Cc1cc(C)n2nc(SCC(=O)NC(=O)c3ccccc3Cl)nc2n1", "values": [{"measurement": "cell number change", "value": -13.1, "unit": "%"}]}, {"smiles": "COc1ccc(C2CC(c3ccccc3)=NN2C(=O)CSc2ncccn2)cc1", "note": "(stereo unspecified)", "values": [{"measurement": "AC50", "setting": "[1]", "value": "25.9 µM [falling, single point]"}]}, {"smiles": "CC1(C)Cc2c(cnn2-c2ccccc2)C(=O)/C1=N\\NC(=O)c1ccccc1N", "values": [{"measurement": "cell number change", "value": -1.88, "unit": "%"}]}, {"smiles": "CC(OC(=O)c1snc(C(=O)NC2CCCCC2)c1N)C(=O)NC(C)(C)C", "note": "(stereo unspecified)", "values": [{"measurement": "cell number change", "value": -44.6, "unit": "%"}, {"measurement": "AC50", "setting": "[2]", "value": "20.6 µM [falling, single point]"}, {"measurement": "AC50", "setting": "[1]", "value": "18.4 µM [falling, single point]"}]}, {"smiles": "CCCCn1c(N)c(N(Cc2ccccc2OC)C(=O)c2c(CC)noc2C)c(=O)[nH]c1=O", "values": [{"measurement": "cell number change", "value": 3.52, "unit": "%"}, {"measurement": "AC50", "setting": "[1]", "value": "0.731 µM [rising, single point]"}]}, {"smiles": "Cc1ccc(S(=O)(=O)N2CCC(NC(=O)OC(C)C)CC2)cc1", "values": [{"measurement": "cell number change", "value": -38.5, "unit": "%"}, {"measurement": "AC50", "setting": "[2]", "value": "0.517 µM [falling, full curve, poor fit]"}, {"measurement": "AC50", "setting": "[1]", "value": "9.2 µM [falling, partial curve]"}]}, {"smiles": "Cn1c(Cc2ccccc2)nnc1SCC(=O)Nc1ccc2c(c1)OCCO2", "values": [{"measurement": "cell number change", "value": -12.6, "unit": "%"}, {"measurement": "AC50", "setting": "[1]", "value": "0.411 µM [falling, full curve, poor fit]"}]}, {"smiles": "O=C(CCC(=O)Nc1ccc(F)cc1)N/N=C/c1cccs1", "values": [{"measurement": "cell number change", "value": 15.5, "unit": "%"}, {"measurement": "AC50", "setting": "[1]", "value": "10 µM [rising, partial curve, poor fit]"}]}, {"smiles": "CN(C)/C=C/C(=O)/C=C/c1ccc(Cl)cc1Cl", "values": [{"measurement": "cell number change", "value": 28.5, "unit": "%"}, {"measurement": "AC50", "setting": "[1]", "value": "8.2 µM [rising, partial curve, poor fit]"}]}, {"smiles": "Cc1ccc2ncnc(Nc3ccc(C)c(C)c3)c2c1", "values": [{"measurement": "cell number change", "value": 33.5, "unit": "%"}, {"measurement": "AC50", "setting": "[2]", "value": "4.61 µM [rising, full curve, poor fit]"}, {"measurement": "AC50", "setting": "[1]", "value": "11.6 µM [falling, partial curve]"}]}, {"smiles": "O=C(Nc1ccc(-c2nnc(-c3ccco3)o2)cc1)C(c1ccccc1)c1ccccc1", "values": [{"measurement": "cell number change", "value": 39.4, "unit": "%"}, {"measurement": "AC50", "setting": "[2]", "value": "18.4 µM [rising, single point]"}]}, {"smiles": "Cc1cccc(NS(=O)(=O)c2ccc(C(=O)NCC(c3ccco3)N(C)C)cc2)c1C", "note": "(stereo unspecified)", "values": [{"measurement": "cell number change", "value": 18.5, "unit": "%"}, {"measurement": "AC50", "setting": "[2]", "value": "2.31 µM [rising, partial curve, poor fit]"}, {"measurement": "AC50", "setting": "[1]", "value": "0.206 µM [rising, full curve, poor fit]"}]}, {"smiles": "CCC(C)(C(=O)NC1CCCCC1)N(C)C(=O)c1ccccn1", "note": "(stereo unspecified)", "values": [{"measurement": "cell number change", "value": -4.15, "unit": "%"}]}, {"smiles": "Cc1ccc(C2CC(=O)c3cnn(-c4nc(C)cc(C)n4)c3C2)cc1", "note": "(stereo unspecified)", "values": [{"measurement": "cell number change", "value": -49.3, "unit": "%"}, {"measurement": "AC50", "setting": "[2]", "value": "29.1 µM [falling, single point]"}, {"measurement": "AC50", "setting": "[1]", "value": "29.1 µM [falling, single point]"}]}]}
